Drawing on the supplement of paper PMC12819154, “High-throughput peptide-centric local stability assay extends protein–ligand identification to membrane proteins, tissues and bacteria” (Nature Structural & Molecular Biology, 2025), this text covers log2 fold change for ten targets.

Chains of the proteins cited; added tags and fusions are not shown. Lines headed by an entry give the natural chain unless they say otherwise; changes in a name come on top.
UniProt Q8N9N2: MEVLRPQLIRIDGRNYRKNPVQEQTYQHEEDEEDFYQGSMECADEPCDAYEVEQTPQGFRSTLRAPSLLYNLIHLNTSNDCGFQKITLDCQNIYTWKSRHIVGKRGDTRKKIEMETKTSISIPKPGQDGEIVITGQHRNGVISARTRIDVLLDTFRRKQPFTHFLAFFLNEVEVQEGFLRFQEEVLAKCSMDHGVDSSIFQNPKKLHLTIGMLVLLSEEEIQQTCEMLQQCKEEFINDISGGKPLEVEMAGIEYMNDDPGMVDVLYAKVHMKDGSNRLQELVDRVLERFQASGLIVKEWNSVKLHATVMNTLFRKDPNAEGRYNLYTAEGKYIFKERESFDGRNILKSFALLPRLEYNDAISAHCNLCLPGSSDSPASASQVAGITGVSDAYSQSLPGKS
UniProt Q8N6M0: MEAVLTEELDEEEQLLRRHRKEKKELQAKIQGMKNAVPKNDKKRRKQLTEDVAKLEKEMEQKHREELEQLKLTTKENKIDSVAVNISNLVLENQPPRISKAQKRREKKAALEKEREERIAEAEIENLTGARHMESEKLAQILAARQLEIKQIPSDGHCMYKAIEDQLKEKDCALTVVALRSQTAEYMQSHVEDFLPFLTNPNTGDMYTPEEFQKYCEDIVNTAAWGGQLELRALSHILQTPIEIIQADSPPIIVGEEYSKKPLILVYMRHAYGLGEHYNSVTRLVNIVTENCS
UniProt Q8N5M1: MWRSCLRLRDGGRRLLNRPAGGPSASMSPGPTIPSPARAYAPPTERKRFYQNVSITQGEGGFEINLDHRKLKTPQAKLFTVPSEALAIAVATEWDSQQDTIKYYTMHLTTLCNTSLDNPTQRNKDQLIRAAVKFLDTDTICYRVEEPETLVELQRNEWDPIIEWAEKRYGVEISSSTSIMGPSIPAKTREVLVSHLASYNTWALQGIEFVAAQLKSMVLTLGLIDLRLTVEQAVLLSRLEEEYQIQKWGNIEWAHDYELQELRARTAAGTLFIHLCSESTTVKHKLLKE
UniProt Q8NHG8: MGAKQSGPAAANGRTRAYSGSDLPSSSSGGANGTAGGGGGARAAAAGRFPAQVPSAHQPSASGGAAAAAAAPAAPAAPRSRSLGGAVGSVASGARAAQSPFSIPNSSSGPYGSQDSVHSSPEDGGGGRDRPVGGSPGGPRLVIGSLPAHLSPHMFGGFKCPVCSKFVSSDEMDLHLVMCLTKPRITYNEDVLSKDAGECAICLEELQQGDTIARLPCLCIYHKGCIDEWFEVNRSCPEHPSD
UniProt Q8NHH1: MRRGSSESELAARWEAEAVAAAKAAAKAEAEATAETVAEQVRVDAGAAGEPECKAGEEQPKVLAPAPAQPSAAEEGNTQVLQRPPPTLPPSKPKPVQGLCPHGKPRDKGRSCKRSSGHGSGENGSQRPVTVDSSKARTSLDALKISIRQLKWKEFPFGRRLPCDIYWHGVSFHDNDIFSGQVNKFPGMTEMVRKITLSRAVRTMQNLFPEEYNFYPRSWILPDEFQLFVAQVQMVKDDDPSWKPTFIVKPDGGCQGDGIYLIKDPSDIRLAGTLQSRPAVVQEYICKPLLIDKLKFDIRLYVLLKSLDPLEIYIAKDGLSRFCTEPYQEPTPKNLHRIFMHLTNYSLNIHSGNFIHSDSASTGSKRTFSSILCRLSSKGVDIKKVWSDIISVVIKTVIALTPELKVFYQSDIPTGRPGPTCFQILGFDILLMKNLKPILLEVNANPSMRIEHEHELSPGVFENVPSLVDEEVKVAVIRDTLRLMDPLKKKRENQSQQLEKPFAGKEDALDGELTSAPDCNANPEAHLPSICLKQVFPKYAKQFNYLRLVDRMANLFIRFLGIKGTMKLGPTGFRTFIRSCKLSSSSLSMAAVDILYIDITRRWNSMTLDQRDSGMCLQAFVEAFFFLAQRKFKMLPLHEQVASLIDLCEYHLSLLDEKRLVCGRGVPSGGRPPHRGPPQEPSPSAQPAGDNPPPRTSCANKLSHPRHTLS
UniProt Q8N5G2: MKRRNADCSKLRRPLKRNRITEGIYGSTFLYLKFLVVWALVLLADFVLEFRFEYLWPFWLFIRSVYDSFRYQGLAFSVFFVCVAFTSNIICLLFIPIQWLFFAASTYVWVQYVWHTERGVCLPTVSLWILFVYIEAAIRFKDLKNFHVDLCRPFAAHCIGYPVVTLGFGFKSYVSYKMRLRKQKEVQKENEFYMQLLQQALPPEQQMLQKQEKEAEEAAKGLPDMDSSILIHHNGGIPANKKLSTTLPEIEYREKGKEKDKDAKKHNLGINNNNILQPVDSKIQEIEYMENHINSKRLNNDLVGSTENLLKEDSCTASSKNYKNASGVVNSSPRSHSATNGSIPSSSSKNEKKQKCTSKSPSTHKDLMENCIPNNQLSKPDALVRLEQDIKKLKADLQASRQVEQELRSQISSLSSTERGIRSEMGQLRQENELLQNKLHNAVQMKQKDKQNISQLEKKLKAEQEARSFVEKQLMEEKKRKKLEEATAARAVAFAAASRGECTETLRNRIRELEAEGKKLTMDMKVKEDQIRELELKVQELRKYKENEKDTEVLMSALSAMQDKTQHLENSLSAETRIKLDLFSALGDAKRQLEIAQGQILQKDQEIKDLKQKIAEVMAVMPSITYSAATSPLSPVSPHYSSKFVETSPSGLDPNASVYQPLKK
UniProt Q8N6N3: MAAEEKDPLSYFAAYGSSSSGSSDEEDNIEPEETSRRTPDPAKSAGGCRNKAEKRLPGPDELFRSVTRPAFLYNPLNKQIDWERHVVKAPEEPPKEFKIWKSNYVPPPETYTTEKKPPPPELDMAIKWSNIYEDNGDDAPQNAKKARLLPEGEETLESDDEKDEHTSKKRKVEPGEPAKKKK
UniProt Q8TAP8: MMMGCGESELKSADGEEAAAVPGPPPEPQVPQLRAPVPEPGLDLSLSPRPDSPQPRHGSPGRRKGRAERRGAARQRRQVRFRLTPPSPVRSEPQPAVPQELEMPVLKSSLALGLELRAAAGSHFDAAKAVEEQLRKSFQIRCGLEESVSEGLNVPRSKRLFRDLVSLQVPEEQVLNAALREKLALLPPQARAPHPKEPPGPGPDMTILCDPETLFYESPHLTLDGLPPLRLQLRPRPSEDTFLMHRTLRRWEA
UniProt Q8NBN7: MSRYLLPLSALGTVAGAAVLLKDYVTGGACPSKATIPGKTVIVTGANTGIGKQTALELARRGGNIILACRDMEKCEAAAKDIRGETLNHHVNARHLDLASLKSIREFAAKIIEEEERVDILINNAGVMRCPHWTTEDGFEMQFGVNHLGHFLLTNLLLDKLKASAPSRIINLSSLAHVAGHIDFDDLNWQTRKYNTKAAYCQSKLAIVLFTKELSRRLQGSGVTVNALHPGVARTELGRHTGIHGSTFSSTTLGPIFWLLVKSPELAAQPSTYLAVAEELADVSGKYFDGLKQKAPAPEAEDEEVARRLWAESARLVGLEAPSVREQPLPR

Some of the results follow. Small differences around the control level are noise.

Compound in this test: CN[C@@H]1C[C@H]2O[C@@](C)([C@@H]1OC)n1c3ccccc3c3c4c(c5c6ccccc6n2c5c31)C(=O)NC4 [staurosporine]
The test can be described thus: log2 fold change of tryptic peptide abundance, ligand vs vehicle (limited proteolysis) (log2 ratio); higher = more trypsin-susceptible (destabilized). Particulars: ligand concentration: 20 uM; sample: K562 cleared lysate; digestion: 4 min, 22 C (HT-PELSA RT4min, Orbitrap Astral).
For “ASCC1 (peptide sequence: YNLYTAEGK, peptide start residue: 323) (UniProt Q8N9N2)”, the log2 fold change was -0.113.
For the target “OTUD6B (peptide sequence: QIPSDGHCMYK, peptide start residue: 151) (UniProt Q8N6M0)”, the log2 fold change was 0.107.
Take “ATPAF2 (peptide sequence: KLKTPQAK, peptide start residue: 70) (UniProt Q8N5M1)”: the log2 fold change is 0.555.
With “ZNRF2 (peptide sequence: SLGGAVGSVASGAR, peptide start residue: 82) (UniProt Q8NHG8)” the figure was 0.0151; with “TTLL11 (peptide sequence: WEAEAVAAAK, peptide start residue: 104) (UniProt Q8NHH1)”, -0.0803; with “UniProt Q8N5G2 (peptide sequence: KHNLGINNNNILQPVDSK, peptide start residue: 265)”, -0.526.
As for “C1orf52 (peptide sequence: APEEPPKEFK, peptide start residue: 89) (UniProt Q8N6N3)”, the log2 fold change came out at 0.175.
As for “PPP1R35 (peptide sequence: MMGCGESELK, peptide start residue: 2) (UniProt Q8TAP8)”, the log2 fold change was 0.623.
On to “MRPL50 (peptide sequence: EKEPVVVETVEEK, peptide start residue: 33) (UniProt Q8N5N7)”, for which the log2 fold change was -0.134.
With “RDH13 (peptide sequence: LQGSGVTVNALHPGVAR, peptide start residue: 218) (UniProt Q8NBN7)” the figure was 0.347.
